# Experimental data taken from the supplement of paper PMC8728848.
# Some of the results follow.
# Key:
# Assay in all cases: glycan array binding signal (z-score within array); higher = stronger binding
# Conditions in all cases: glycan notation: IUPAC condensed, linker removed
# Glc(b1-6)Glc = target: Glc(b1-6)Glc
# In short: (§1)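 Glycan array data were curated from 3228 arrays in the Consortium for Functional Glycomics database and kept only where the protein sequence was available. Glycan names were converted to IUPAC-condensed notation, and columns mapping to the same glycan were averaged. The binding signal is a within-array Z-score, averaged across arrays of the same protein sequence at different concentrations or buffers and across linkers. Negative Z-scores can be read as non-binding.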
# GlcA(b1-3)Gal = target: GlcA(b1-3)Gal
# In short: as §1
# GlcA(b1-3)GlcNAc = target: GlcA(b1-3)GlcNAc
# In short: as §1
# GlcA(b1-6)Gal = target: GlcA(b1-6)Gal
# In short: as §1
# [1] = target: GlcA3S(b1-3)Gal(b1-4)GlcNAc(b1-2)Man
# In short: as §1
# [2] = target: GlcA3S(b1-3)Gal(b1-4)GlcNAc(b1-3)Gal(b1-4)Glc
# In short: as §1
# [3] = target: GlcNAc(a1-3)Gal(b1-4)GlcNAc
# In short: as §1
# [4] = target: GlcNAc(a1-4)Gal(b1-3)GlcNAc
# In short: as §1
# [5] = target: GlcNAc(a1-4)Gal(b1-4)GalNAc
# In short: as §1
# [6] = target: GlcNAc(a1-4)Gal(b1-4)GlcNAc
# In short: as §1
# [7] = target: GlcNAc(a1-4)Gal(b1-4)GlcNAc(b1-3)Gal(b1-4)Glc
# In short: as §1
# [8] = target: GlcNAc(a1-4)Gal(b1-4)GlcNAc(b1-3)Gal(b1-4)GlcNAc
# In short: as §1
# [9] = target: GlcNAc(a1-4)Gal(b1-4)GlcNAc(b1-3)Gal(b1-4)GlcNAc(b1-3)Gal(b1-4)GlcNAc
# In short: as §1
# [10] = target: GlcNAc(a1-4)Gal(b1-4)GlcNAc(b1-3)Gal(b1-4)[Fuc(a1-3)]GlcNAc(b1-3)Gal(b1-4)[Fuc(a1-3)]GlcNAc
# In short: as §1
# [11] = target: GlcNAc(a1-6)Gal(b1-4)GlcNAc
# In short: as §1
# [12] = target: GlcNAc(b1-2)Gal(b1-3)GalNAc
# In short: as §1
# [13] = target: GlcNAc(b1-2)Man(a1-3)[GlcNAc(b1-2)Man(a1-6)]Man(b1-4)GlcNAc(b1-4)GlcNAc
# In short: as §1
# [14] = target: GlcNAc(b1-2)Man(a1-3)[GlcNAc(b1-2)Man(a1-6)]Man(b1-4)GlcNAc(b1-4)[Fuc(a1-6)]GlcNAc
# In short: as §1
# [15] = target: GlcNAc(b1-2)Man(a1-3)[GlcNAc(b1-4)][GlcNAc(b1-2)Man(a1-6)]Man(b1-4)GlcNAc(b1-4)GlcNAc
# In short: as §1
# [16] = target: GlcNAc(b1-2)Man(a1-3)[GlcNAc(b1-4)][GlcNAc(b1-2)Man(a1-6)]Man(b1-4)GlcNAc(b1-4)[Fuc(a1-6)]GlcNAc
# In short: as §1
# [17] = target: GlcNAc(b1-2)[GlcNAc(b1-4)]Man(a1-3)[GlcNAc(b1-2)Man(a1-6)]Man(b1-4)GlcNAc(b1-4)GlcNAc
# In short: as §1
# [18] = target: GlcNAc(b1-2)[GlcNAc(b1-4)]Man(a1-3)[GlcNAc(b1-4)][GlcNAc(b1-2)Man(a1-6)]Man(b1-4)GlcNAc(b1-4)GlcNAc
# In short: as §1
# [19] = target: GlcNAc(b1-2)[GlcNAc(b1-4)]Man(a1-3)[GlcNAc(b1-4)][GlcNAc(b1-2)[GlcNAc(b1-6)]Man(a1-6)]Man(b1-4)GlcNAc(b1-4)GlcNAc
# In short: as §1
# [20] = target: GlcNAc(b1-2)[GlcNAc(b1-4)]Man(a1-3)[GlcNAc(b1-4)][GlcNAc(b1-2)[GlcNAc(b1-6)]Man(a1-6)]Man(b1-4)GlcNAc(b1-4)[Fuc(a1-6)]GlcNAc
# In short: as §1
# [21] = target: GlcNAc(b1-2)[GlcNAc(b1-6)]Man(a1-6)[GlcNAc(b1-2)Man(a1-3)]Man(b1-4)GlcNAc(b1-4)GlcNAc
# In short: as §1
# [22] = target: GlcNAc(b1-2)[GlcNAc(b1-6)]Man(a1-6)[GlcNAc(b1-2)Man(a1-3)]Man(b1-4)GlcNAc(b1-4)[Fuc(a1-6)]GlcNAc
# In short: as §1
# [23] = target: GlcNAc(b1-2)[GlcNAc(b1-6)]Man(a1-6)[GlcNAc(b1-4)][GlcNAc(b1-2)Man(a1-3)]Man(b1-4)GlcNAc(b1-4)GlcNAc
# In short: as §1
# GlcNAc(b1-3)Fuc = target: GlcNAc(b1-3)Fuc
# In short: as §1
# GlcNAc(b1-3)Gal = target: GlcNAc(b1-3)Gal
# In short: as §1
# [24] = target: GlcNAc(b1-3)Gal(b1-3)GalNAc
# In short: as §1
# GlcNAc(b1-3)Gal(b1-4)Glc = target: GlcNAc(b1-3)Gal(b1-4)Glc
# In short: as §1
# [25] = target: GlcNAc(b1-3)Gal(b1-4)GlcNAc
# In short: as §1
# [26] = target: GlcNAc(b1-3)Gal(b1-4)GlcNAc(b1-2)Man(a1-3)[GlcNAc(b1-3)Gal(b1-4)GlcNAc(b1-2)Man(a1-6)]Man(b1-4)GlcNAc(b1-4)GlcNAc
# In short: as §1
# [27] = target: GlcNAc(b1-3)Gal(b1-4)GlcNAc(b1-2)Man(a1-3)[GlcNAc(b1-3)Gal(b1-4)GlcNAc(b1-2)Man(a1-6)]Man(b1-4)GlcNAc(b1-4)[Fuc(a1-6)]GlcNAc
# In short: as §1
# [28] = target: GlcNAc(b1-3)Gal(b1-4)GlcNAc(b1-2)[GlcNAc(b1-3)Gal(b1-4)GlcNAc(b1-6)]Man(a1-6)[GlcNAc(b1-3)Gal(b1-4)GlcNAc(b1-2)Man(a1-3)]Man(b1-4)GlcNAc(b1-4)GlcNAc
# In short: as §1
# [29] = target: GlcNAc(b1-3)Gal(b1-4)GlcNAc(b1-3)Gal(b1-4)GlcNAc
# In short: as §1
# [30] = target: GlcNAc(b1-3)Gal(b1-4)GlcNAc(b1-3)Gal(b1-4)GlcNAc(b1-2)Man(a1-3)[GlcNAc(b1-3)Gal(b1-4)GlcNAc(b1-3)Gal(b1-4)GlcNAc(b1-2)Man(a1-6)]Man(b1-4)GlcNAc(b1-4)GlcNAc
# In short: as §1
# [31] = target: GlcNAc(b1-3)Gal(b1-4)GlcNAc(b1-3)Gal(b1-4)GlcNAc(b1-2)Man(a1-3)[GlcNAc(b1-3)Gal(b1-4)GlcNAc(b1-3)Gal(b1-4)GlcNAc(b1-2)Man(a1-6)]Man(b1-4)GlcNAc(b1-4)[Fuc(a1-6)]GlcNAc
# In short: as §1
# [32] = target: GlcNAc(b1-3)Gal(b1-4)GlcNAc(b1-3)Gal(b1-4)GlcNAc(b1-2)[GlcNAc(b1-3)Gal(b1-4)GlcNAc(b1-3)Gal(b1-4)GlcNAc(b1-6)]Man(a1-6)[GlcNAc(b1-3)Gal(b1-4)GlcNAc(b1-3)Gal(b1-4)GlcNAc(b1-2)Man(a1-3)]Man(b1-4)GlcNAc(b1-4)[Fuc(a1-6)]GlcNAc
# In short: as §1
# [33] = target: GlcNAc(b1-3)Gal(b1-4)GlcNAc(b1-3)Gal(b1-4)GlcNAc(b1-3)Gal(b1-4)GlcNAc(b1-2)Man(a1-3)[GlcNAc(b1-3)Gal(b1-4)GlcNAc(b1-3)Gal(b1-4)GlcNAc(b1-3)Gal(b1-4)GlcNAc(b1-2)Man(a1-6)]Man(b1-4)GlcNAc(b1-4)GlcNAc
# In short: as §1
# [34] = target: GlcNAc(b1-3)Gal(b1-4)GlcNAc(b1-3)Gal(b1-4)GlcNAc(b1-3)Gal(b1-4)GlcNAc(b1-2)Man(a1-3)[GlcNAc(b1-3)Gal(b1-4)GlcNAc(b1-3)Gal(b1-4)GlcNAc(b1-3)Gal(b1-4)GlcNAc(b1-2)Man(a1-6)]Man(b1-4)GlcNAc(b1-4)[Fuc(a1-6)]GlcNAc
# In short: as §1
# [35] = target: GlcNAc(b1-3)Gal(b1-4)GlcNAc(b1-3)Gal(b1-4)GlcNAc(b1-3)Gal(b1-4)GlcNAc(b1-2)[GlcNAc(b1-3)Gal(b1-4)GlcNAc(b1-3)Gal(b1-4)GlcNAc(b1-3)Gal(b1-4)GlcNAc(b1-6)]Man(a1-6)[GlcNAc(b1-3)Gal(b1-4)GlcNAc(b1-3)Gal(b1-4)GlcNAc(b1-3)Gal(b1-4)GlcNAc(b1-2)Man(a1-3)]Man(b1-4)GlcNAc(b1-4)[Fuc(a1-6)]GlcNAc
# In short: as §1
# [36] = target: GlcNAc(b1-3)Gal(b1-4)GlcNAc(b1-3)Gal(b1-4)GlcNAc(b1-3)Gal(b1-4)GlcNAc(b1-3)Gal(b1-4)GlcNAc(b1-2)Man(a1-3)[GlcNAc(b1-3)Gal(b1-4)GlcNAc(b1-3)Gal(b1-4)GlcNAc(b1-3)Gal(b1-4)GlcNAc(b1-3)Gal(b1-4)GlcNAc(b1-2)Man(a1-6)]Man(b1-4)GlcNAc(b1-4)GlcNAc
# In short: as §1
# [37] = target: GlcNAc(b1-3)Gal(b1-4)GlcNAc(b1-3)Gal(b1-4)GlcNAc(b1-3)Gal(b1-4)GlcNAc(b1-3)Gal(b1-4)GlcNAc(b1-2)Man(a1-3)[GlcNAc(b1-3)Gal(b1-4)GlcNAc(b1-3)Gal(b1-4)GlcNAc(b1-3)Gal(b1-4)GlcNAc(b1-3)Gal(b1-4)GlcNAc(b1-2)Man(a1-6)]Man(b1-4)GlcNAc(b1-4)[Fuc(a1-6)]GlcNAc
# In short: as §1
# [38] = target: GlcNAc(b1-3)Gal(b1-4)GlcNAc(b1-3)Gal(b1-4)GlcNAc(b1-3)Gal(b1-4)GlcNAc(b1-3)Gal(b1-4)GlcNAc(b1-2)[GlcNAc(b1-3)Gal(b1-4)GlcNAc(b1-3)Gal(b1-4)GlcNAc(b1-3)Gal(b1-4)GlcNAc(b1-3)Gal(b1-4)GlcNAc(b1-6)]Man(a1-6)[GlcNAc(b1-3)Gal(b1-4)GlcNAc(b1-3)Gal(b1-4)GlcNAc(b1-3)Gal(b1-4)GlcNAc(b1-3)Gal(b1-4)GlcNAc(b1-2)Man(a1-3)]Man(b1-4)GlcNAc(b1-4)[Fuc(a1-6)]GlcNAc
# In short: as §1
binder,measurement,setting,value
EUL D1A first (Oryza sativa) (protein) MFGFGHHHNQAPAAPSDPNQIFKIFCRANENYCLTVRDSAVVLAPVNPKDEHQHWFKDMRFSTKVKDGEGMPAFALVNKATGLAVKHSLGQSHPVKLVPFNPEYEDASVLWTESKDVGKGFRCIRMVNNTRLNLDAFHGDKDHGGVRDGTTVVLWEWCKGDNQSWKILPWGPEAHSSSPGAATILEQKLISEEDLNSAVDHHHHHH,glycan array binding signal (z-score),Glc(b1-6)Glc,-0.941
same,glycan array binding signal (z-score),GlcA(b1-3)Gal,-0.284
same,glycan array binding signal (z-score),GlcA(b1-3)GlcNAc,0.384
same,glycan array binding signal (z-score),GlcA(b1-6)Gal,0.046
same,glycan array binding signal (z-score),[1],0.924
same,glycan array binding signal (z-score),[2],-0.203
same,glycan array binding signal (z-score),[3],-1.65
same,glycan array binding signal (z-score),[4],-1.04
same,glycan array binding signal (z-score),[5],1.73
same,glycan array binding signal (z-score),[6],-1.09
same,glycan array binding signal (z-score),[7],-0.65
same,glycan array binding signal (z-score),[8],-0.994
same,glycan array binding signal (z-score),[9],-0.413
same,glycan array binding signal (z-score),[10],0.005
same,glycan array binding signal (z-score),[11],-0.988
same,glycan array binding signal (z-score),[12],-0.463
same,glycan array binding signal (z-score),[13],-0.66
same,glycan array binding signal (z-score),[14],3.11
same,glycan array binding signal (z-score),[15],-0.869
same,glycan array binding signal (z-score),[16],-0.231
same,glycan array binding signal (z-score),[17],-1.05
same,glycan array binding signal (z-score),[18],-0.55
same,glycan array binding signal (z-score),[19],-0.605
same,glycan array binding signal (z-score),[20],0.23
same,glycan array binding signal (z-score),[21],-0.379
same,glycan array binding signal (z-score),[22],2.21
same,glycan array binding signal (z-score),[23],-1.08
same,glycan array binding signal (z-score),GlcNAc(b1-3)Fuc,-0.954
same,glycan array binding signal (z-score),GlcNAc(b1-3)Gal,-0.927
same,glycan array binding signal (z-score),[24],-0.611
same,glycan array binding signal (z-score),GlcNAc(b1-3)Gal(b1-4)Glc,-0.948
same,glycan array binding signal (z-score),[25],-0.114
same,glycan array binding signal (z-score),[26],-0.253
same,glycan array binding signal (z-score),[27],0.782
same,glycan array binding signal (z-score),[28],1.95
same,glycan array binding signal (z-score),[29],-0.442
same,glycan array binding signal (z-score),[30],0.506
same,glycan array binding signal (z-score),[31],-0.261
same,glycan array binding signal (z-score),[32],1.9
same,glycan array binding signal (z-score),[33],0.435
same,glycan array binding signal (z-score),[34],1.86
same,glycan array binding signal (z-score),[35],0.304
same,glycan array binding signal (z-score),[36],-0.25
same,glycan array binding signal (z-score),[37],2.06
same,glycan array binding signal (z-score),[38],1.55

# Part of the list above, with bars between the fields:
binder | measurement | setting | value
EUL D1A first (Oryza sativa) (protein) MFGFGHHHNQAPAAPSDPNQIFKIFCRANENYCLTVRDSAVVLAPVNPKDEHQHWFKDMRFSTKVKDGEGMPAFALVNKATGLAVKHSLGQSHPVKLVPFNPEYEDASVLWTESKDVGKGFRCIRMVNNTRLNLDAFHGDKDHGGVRDGTTVVLWEWCKGDNQSWKILPWGPEAHSSSPGAATILEQKLISEEDLNSAVDHHHHHH | glycan array binding signal (z-score) | [30] | 0.506
same | glycan array binding signal (z-score) | [31] | -0.261
same | glycan array binding signal (z-score) | [32] | 1.9
